Data from article PMC11149843.
Results are given in words; binding and its absence hold for the method and conditions named. Binding seen in cells or lysates may run through a third protein. These calls come from enrichment with a bait or labelling near it, and not all partners need be listed. Where a sequence is shown, tags or fusion partners need not be part of it.

By UniProt entry, the sequences of proteins in these tests, tags left out.
UniProt P22216: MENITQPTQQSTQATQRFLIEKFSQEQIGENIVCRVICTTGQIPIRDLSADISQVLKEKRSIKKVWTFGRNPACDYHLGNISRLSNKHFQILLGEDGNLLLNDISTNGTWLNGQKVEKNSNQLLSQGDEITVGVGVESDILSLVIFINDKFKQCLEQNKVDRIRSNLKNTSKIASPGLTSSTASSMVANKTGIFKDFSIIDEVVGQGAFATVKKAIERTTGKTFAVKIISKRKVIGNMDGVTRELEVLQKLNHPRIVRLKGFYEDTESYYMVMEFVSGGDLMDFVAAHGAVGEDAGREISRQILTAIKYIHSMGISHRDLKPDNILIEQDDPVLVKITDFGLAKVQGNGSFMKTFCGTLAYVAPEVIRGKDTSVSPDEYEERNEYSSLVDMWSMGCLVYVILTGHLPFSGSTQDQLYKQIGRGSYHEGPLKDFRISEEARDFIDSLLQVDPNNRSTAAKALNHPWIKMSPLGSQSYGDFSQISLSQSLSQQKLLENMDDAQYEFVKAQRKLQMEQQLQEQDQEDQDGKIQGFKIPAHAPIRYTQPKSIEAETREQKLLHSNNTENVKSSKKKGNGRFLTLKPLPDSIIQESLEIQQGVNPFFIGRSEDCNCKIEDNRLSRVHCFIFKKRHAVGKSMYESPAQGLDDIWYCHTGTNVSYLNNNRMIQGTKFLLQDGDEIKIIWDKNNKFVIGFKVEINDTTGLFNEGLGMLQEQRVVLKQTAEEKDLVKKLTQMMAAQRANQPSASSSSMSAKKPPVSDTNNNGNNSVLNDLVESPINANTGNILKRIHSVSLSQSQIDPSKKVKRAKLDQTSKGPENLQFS

T1: Mcm4-GFP (Saccharomyces cerevisiae) (UniProt P30665)
T1 sequence: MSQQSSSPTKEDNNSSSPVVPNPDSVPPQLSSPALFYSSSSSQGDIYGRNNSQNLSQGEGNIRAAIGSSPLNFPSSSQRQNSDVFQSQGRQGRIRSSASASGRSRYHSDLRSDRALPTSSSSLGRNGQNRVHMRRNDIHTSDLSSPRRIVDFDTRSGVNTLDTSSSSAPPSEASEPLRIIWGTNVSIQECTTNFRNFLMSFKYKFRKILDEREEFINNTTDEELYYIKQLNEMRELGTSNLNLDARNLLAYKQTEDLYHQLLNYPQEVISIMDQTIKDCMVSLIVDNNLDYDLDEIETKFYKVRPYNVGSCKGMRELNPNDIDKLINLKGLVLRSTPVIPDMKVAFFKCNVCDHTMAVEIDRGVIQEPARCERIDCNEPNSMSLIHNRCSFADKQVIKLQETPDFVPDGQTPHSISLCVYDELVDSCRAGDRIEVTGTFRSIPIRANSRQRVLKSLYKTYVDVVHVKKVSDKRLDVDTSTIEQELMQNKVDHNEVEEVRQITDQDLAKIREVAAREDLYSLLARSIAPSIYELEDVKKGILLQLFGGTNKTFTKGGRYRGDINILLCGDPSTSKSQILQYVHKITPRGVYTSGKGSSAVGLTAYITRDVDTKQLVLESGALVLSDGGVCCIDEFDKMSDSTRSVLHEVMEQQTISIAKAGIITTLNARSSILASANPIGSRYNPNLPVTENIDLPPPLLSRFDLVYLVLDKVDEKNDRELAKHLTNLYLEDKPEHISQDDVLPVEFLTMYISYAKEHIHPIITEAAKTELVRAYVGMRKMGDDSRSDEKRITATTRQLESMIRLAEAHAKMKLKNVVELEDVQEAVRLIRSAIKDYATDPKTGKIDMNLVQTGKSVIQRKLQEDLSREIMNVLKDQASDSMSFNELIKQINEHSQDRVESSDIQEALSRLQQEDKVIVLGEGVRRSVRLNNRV

B1: Rnr3 (protein, UniProt P21672 1-869)
chain: MYVIKRDGRKEPVQFDKITSRITRLSYGLDPNRIDAVKVTQRIISGVYSGVTTVELDNLAAETCAYMTTVHPDYATLAARIAISNLHKQTTKQFSKVIEDLHDWINPATGKHAPMISDEIYNIVMENKDTLNSAIVYDRDFQYTYFGFKTLERSYLLRLNGEVAERPQHLVMRVALGIHGSDIESVLKTYNLMSLRYFTHASPTLFNAGTPHPQMSSCFLIAMKDDSIEGIYDTLKECAMISKTAGGVGLHINNIRSTGSYIAGTNGTSNGLIPMIRVFNNTARYVDQGGNKRPGAFALFLEPWHADIFDFVDIRKTHGKEEIRARDLFPALWIPDLFMKRVQEDGPWTLFSPSAAPGLDDVWGDEFEELYTRYEREGRGKTIKAQKLWYAILQAQTETGTPFMVYKDACNRKTNQQNLGTIKSSNLCCEIVEYSSPDETAVCNLASIALPAFVEVSEDGKTASYNFERLHEIAKVITHNLNRVIDRNYYPVPEARNSNMKHRPIALGVQGLADTYMMLRLPFESEEAQTLNKQIFETIYHATLEASCELAQKEGKYSTFEGSPASKGILQFDMWNAKPFGMWDWETLRKDIVKHGLRNSLTMAPMPTASTSQILGYNECFEPVTSNMYSRRVLSGEFQVVNPYLLRDLVDLGIWDDSMKQYLITQNGSIQGLPNVPQELKELYKTVWEISQKTIINMAADRAIYIDQSHSLNLFLQAPSMGKITSMHFYGWKKGLKTGMYYLRTQAASAAIQFTIDQEVADQAATHIASVSELDRPVYVPKGTKFSEQKAASALTESSDNEKDASPVPSEQSSVSSAMSNVKLEDSVAPAVPTETIKEDSDEKKCDIYNEKVIACTAPTPEACESCSG
B2: Crt10 (protein, UniProt Q08226 1-957)
chain: MPPQIPNENDDLFTRWLKSRAIIQRAVSTRECFDSEVFLASGGWNITNEIITLKKYYQLKWPNSSCNSFHPKTVEFIKERLHNLEEHDSSWKIPNPAYSFKKAFLEDTKSAFSNLEPVWGPSRLLNPAELLLPQDEKLLVQEIPLEFAPFQYTNRFAYGGLQFKNNLFVTYGSYSFLAAGQCVEVHNFDILLNVSSLEICHALLPVIIPDDGDVRNFRNSSYVKFKDTQFNSIPELCSINFMKICNFMHQDFLLACGDNGIVYIWEINKVIKIFNKFTSDILGGKDNSRERYINVDPYMVLRVEESCWSVDVIDINGIIYIAVGHNKPGVTVFAFDKDVKKERRYIRPLDLPSSHNVPCVNFVPNSKDSVGYITLSYCSIFGNVVTVKLKEHDCTILTSFLDTQFFGDDLWTITPLTKKDFAKVDNFELLNLNYQDGFKESMLYSICRDDFLLGYYCDNAYLSGNFGIGTLLNQFQVPVTDLRLTSSAGIPDEVIPLRFTSFDRNYTTTGSIKYEYSREDFALILHAGDLDDMNDAVTKNTSCEQHLHQWTFWEDSGYKHYRATERGFSKYKDIINTFPQLITPSGRNKTSQYQNTSGRKICEPSTYKLTDLENDIEDISREFNRSIRNLKMDKQRQLRTSKEFKSLSSVNHIPNIESGNFLWYNTDAAADWRTLFGKDLNTVLKDPEICSLQLNSTEEDDVNSDPENEESGSSLTSFQRRYRDTEQRAHLKSESQKSWGFHNYVRNVKRLLESAVPGSEDSPLGYQLSEMHDEFFFLTTAHRLVLMKANPLIIISATHHEIFPLDGVVTCASKSLLQALNRINFVCHIKELNCIAVASQLGLISLLRLTEYRGIYSFRQEYILGWEVQDPVNPSPECRCNRNLFDAPMYGADGESSDTYCGVCDVYFPMGDICGLDYTYASDSEELKRKGYATLYVASRGSLRAFKITTEHGTTQQ

Target: T1, Mcm4-GFP (Saccharomyces cerevisiae)
Assay: affinity purification with mass spectrometry; Mcm4-GFP immunoprecipitated with GFP-trap beads under native conditions from asynchronous cultures treated or not with 0.025% MMS for 2 hours; untagged control; four biological repeats

binding	Molecule
binds	Rad53 (from UniProt P22216 1-821)
binds	B1
binds	B2
